Experimental data published in paper PMC11952666.
Results are given in words; binding and its absence hold for the method and conditions named. Binding seen in cells or lysates may run through a third protein. Some results given as binding are weak or reduced against the parent protein; the word gives no strength.

Amino acid sequences for entries named in this document (tags omitted).
UniProt Q9UKA4: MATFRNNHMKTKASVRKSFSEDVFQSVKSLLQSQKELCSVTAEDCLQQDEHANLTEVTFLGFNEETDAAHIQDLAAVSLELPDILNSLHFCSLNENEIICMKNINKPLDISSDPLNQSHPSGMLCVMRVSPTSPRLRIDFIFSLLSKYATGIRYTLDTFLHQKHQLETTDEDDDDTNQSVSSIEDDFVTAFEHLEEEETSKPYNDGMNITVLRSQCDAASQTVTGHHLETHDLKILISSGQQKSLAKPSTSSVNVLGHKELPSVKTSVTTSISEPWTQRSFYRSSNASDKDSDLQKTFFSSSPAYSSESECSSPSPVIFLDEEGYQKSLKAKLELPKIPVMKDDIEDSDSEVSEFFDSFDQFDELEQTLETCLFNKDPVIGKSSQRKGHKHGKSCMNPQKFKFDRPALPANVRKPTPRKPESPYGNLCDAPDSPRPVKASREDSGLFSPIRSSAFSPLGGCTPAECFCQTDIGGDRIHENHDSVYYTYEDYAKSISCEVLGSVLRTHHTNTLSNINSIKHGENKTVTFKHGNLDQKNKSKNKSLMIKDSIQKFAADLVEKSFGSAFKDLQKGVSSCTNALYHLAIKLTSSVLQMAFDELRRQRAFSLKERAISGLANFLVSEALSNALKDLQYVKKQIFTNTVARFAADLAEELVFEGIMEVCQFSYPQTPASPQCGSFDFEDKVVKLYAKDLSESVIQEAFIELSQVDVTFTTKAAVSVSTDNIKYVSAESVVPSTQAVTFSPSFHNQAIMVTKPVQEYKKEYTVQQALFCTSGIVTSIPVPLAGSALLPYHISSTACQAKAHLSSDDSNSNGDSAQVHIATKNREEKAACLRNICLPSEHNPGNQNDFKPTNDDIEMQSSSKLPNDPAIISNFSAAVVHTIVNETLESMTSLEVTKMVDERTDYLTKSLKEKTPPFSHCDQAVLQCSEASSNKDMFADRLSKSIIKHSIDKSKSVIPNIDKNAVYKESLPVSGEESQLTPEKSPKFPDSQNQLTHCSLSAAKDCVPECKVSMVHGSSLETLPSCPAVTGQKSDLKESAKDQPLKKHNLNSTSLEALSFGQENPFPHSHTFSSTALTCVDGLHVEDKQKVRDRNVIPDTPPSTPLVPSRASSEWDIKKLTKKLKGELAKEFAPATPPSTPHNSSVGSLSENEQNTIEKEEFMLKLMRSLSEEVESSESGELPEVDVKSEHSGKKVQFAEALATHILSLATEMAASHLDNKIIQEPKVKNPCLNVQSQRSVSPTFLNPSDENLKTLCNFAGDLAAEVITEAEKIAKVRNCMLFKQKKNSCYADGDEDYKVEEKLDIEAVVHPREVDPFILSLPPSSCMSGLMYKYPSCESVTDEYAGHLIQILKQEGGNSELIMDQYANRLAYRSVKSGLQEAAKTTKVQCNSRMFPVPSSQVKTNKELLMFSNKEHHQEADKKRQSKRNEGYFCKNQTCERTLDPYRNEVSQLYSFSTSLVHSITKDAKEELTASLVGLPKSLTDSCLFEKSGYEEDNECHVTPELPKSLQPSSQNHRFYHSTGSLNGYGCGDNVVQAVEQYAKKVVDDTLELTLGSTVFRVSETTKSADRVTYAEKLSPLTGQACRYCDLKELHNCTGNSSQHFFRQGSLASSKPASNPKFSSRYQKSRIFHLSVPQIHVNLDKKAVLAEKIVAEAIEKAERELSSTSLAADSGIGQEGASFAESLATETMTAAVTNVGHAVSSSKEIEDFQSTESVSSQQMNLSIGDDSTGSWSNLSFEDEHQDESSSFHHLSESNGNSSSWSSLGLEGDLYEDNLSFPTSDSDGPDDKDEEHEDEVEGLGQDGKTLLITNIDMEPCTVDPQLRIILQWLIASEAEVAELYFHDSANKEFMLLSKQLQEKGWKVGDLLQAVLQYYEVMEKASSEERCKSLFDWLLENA
UniProt Q9DBC7: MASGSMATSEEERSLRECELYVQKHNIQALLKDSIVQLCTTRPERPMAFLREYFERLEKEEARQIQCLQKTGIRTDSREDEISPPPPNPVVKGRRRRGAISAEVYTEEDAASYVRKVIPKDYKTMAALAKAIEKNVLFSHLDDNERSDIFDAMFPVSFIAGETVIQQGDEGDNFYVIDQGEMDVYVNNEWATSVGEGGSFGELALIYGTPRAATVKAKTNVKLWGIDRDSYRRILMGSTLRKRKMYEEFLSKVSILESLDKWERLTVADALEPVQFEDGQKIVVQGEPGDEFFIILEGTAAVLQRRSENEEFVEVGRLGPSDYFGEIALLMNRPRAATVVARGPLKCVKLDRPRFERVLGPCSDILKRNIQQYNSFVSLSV
UniProt P12849: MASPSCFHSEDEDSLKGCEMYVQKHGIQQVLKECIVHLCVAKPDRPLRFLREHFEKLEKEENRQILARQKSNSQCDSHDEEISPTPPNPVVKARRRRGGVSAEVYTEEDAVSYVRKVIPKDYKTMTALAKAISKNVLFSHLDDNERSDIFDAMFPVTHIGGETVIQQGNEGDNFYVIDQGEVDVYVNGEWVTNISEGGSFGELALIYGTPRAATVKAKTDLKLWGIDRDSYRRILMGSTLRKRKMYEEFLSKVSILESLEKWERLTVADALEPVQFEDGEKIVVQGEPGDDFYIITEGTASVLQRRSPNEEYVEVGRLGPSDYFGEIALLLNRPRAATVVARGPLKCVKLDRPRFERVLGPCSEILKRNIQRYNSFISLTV
UniProt Q6NSW3: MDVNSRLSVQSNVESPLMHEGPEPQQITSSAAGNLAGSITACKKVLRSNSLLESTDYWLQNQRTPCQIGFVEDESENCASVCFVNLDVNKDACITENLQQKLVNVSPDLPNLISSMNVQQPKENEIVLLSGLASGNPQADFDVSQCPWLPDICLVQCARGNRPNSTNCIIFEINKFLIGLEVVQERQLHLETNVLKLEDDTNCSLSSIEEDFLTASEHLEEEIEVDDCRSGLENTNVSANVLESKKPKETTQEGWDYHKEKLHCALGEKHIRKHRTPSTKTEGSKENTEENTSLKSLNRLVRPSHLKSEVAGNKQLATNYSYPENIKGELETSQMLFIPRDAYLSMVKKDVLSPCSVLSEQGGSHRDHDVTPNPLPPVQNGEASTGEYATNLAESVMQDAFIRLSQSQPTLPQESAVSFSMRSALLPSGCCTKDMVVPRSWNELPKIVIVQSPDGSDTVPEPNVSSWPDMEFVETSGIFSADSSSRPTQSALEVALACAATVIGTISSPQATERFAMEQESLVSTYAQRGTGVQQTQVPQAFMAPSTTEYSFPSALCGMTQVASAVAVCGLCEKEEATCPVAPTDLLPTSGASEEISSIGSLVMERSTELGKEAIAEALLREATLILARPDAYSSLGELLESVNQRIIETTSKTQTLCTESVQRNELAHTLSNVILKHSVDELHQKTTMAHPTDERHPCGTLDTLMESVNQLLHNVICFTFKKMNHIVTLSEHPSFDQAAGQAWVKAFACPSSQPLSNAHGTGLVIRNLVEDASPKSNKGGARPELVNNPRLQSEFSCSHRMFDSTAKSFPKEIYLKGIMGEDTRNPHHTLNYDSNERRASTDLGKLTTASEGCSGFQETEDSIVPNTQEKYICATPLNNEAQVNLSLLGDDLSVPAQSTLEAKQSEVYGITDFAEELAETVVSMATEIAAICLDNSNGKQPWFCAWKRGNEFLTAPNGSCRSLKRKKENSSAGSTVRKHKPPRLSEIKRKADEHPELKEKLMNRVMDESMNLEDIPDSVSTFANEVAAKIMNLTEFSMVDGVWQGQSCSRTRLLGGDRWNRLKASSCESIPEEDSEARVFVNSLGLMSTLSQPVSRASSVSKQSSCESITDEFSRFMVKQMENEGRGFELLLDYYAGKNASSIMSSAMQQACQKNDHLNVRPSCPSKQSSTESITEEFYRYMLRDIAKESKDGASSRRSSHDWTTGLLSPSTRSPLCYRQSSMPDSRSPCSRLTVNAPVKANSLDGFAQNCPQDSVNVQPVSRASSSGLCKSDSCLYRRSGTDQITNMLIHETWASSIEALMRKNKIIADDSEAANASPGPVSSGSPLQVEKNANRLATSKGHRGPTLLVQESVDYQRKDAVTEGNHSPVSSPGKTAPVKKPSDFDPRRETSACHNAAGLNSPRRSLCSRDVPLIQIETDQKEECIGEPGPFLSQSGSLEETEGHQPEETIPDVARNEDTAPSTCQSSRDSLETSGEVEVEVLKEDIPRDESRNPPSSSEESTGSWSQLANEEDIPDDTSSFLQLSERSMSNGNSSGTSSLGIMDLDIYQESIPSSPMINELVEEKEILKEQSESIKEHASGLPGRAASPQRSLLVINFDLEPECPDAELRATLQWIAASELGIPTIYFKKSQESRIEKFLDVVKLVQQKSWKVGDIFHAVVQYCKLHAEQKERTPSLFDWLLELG
UniProt Q9QY76: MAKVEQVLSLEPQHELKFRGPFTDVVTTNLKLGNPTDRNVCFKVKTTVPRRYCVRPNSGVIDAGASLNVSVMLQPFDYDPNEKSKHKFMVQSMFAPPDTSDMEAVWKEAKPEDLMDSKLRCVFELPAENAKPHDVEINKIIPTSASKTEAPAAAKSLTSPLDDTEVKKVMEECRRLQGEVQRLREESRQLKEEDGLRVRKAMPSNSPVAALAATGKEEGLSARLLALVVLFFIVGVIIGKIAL

Target: AKAP11-eGFP fusion protein (UniProt Q9UKA4)
Assay: co-IP; GFP-trap magnetic particles (Chromotek), 1 mg brain lysate of AKAP11-eGFP transgenic and non-transgenic mice, overnight at 4°C, washed with RIPA buffer, immunoblot

Row | Molecule | binding
1 | PKA regulatory subunit RIα (from UniProt Q9DBC7 1-381) | binds
2 | PKA regulatory subunit RIβ (from UniProt P12849 1-381) | binds
3 | SPHKAP (from UniProt Q6NSW3 1-1687) | binds
4 | VAPB (from UniProt Q9QY76 1-243) | binds
5 | VAPA (protein, UniProt Q9WV55 1-249) MASASGAMAKHEQILVLDPPSDLKFKGPFTDVVTTNLKLQNPSDRKVCFKVKTTAPRRYCVRPNSGIIDPGSIVTVSVMLQPFDYDPNEKSKHKFMVQTIFAPPNISDMEAVWKEAKPDELMDSKLRCVFEMPNENDKLNDMEPSKAVPLNASKQDGPLPKPHSVSLNDTETRKLMEECKRLQGEMMKLSEENRHLRDEGLRLRKVAHSDKPGSTSAVSFRDNVTSPLPSLLVVIAAIFIGFFLGKFIL | binds
